Measured values reported in paper PMC11401227, “The structure of DNA methyltransferase DNMT3C reveals an activity-tuning mechanism for DNA methylation” (The Journal of Biological Chemistry, 2024).
No constants are given. Whether binding was seen depends on the method and setting. Some results given as binding are weak or reduced against the parent protein; the word gives no strength.

Chains of the proteins cited; added tags and fusions are not shown. Lines headed by an entry give the natural chain unless they say otherwise; changes in a name come on top. A line that says so, or that is headed by a name, gives the form on record, which may keep a tag or linker. Residues count along the entry.
mouse DNMT3C MTase domain (residues 456–740) (P0DOY1, residues 456-740): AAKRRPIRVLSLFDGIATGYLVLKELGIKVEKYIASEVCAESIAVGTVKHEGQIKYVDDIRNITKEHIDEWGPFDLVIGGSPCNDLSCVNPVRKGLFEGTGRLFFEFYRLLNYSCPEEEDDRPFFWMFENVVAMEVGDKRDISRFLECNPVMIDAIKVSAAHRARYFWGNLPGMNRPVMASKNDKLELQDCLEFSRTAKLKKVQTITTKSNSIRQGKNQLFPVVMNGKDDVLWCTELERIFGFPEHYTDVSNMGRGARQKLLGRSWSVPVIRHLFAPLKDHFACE
DNMT3C rahu mutant (E693G), MTase domain (P0DOY1, form named): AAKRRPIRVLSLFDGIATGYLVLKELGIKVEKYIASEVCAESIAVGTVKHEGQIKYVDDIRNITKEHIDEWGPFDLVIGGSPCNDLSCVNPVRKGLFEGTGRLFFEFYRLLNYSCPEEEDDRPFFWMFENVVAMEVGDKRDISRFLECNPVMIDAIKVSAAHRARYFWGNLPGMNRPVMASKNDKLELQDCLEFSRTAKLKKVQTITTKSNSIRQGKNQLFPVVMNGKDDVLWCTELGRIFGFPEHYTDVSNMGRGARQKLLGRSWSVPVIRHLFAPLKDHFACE
UniProt Q9UJW3, residues 178-386: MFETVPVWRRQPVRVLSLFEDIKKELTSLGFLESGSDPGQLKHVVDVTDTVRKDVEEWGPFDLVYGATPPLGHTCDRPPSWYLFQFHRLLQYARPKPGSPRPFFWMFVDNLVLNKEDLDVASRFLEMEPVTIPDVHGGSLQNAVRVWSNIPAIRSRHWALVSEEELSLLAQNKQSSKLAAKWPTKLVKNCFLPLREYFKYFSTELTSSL
UniProt Q9CWR8, residues 220-415: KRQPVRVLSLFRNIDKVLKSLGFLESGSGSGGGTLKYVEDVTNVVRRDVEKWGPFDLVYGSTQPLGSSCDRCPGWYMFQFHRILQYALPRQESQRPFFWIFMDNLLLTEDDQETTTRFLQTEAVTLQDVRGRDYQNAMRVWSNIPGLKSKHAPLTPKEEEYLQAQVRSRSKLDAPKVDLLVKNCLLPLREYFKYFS

Assays:
[1] = target: DNMT3C rahu mutant (E693G), MTase domain (mouse) (UniProt P0DOY1); test: SEC; Superdex 200 increase 10/300 GL; 500 μl of 0.4 mg/ml protein; 25 mM Tris-HCl pH 7.5, 5% glycerol, 250 mM NaCl, 5 mM DTT; protein identity confirmed by SDS-PAGE; both purified
[2] = target: mouse DNMT3C MTase domain (residues 456–740) (mouse) (UniProt P0DOY1); test: crystal structure; DNMT3C MTase domain-hDNMT3L C-terminal domain covalently bound to a 25-mer ZpG/CpG DNA, with SAH; 3.2 Å; crystals grown at 4 °C; both purified
[3] = target: mouse DNMT3C MTase domain (residues 456–740) (mouse) (UniProt P0DOY1); test: co-purification (Ni-NTA, Heparin, SEC); His6-SUMO-DNMT3C and untagged DNMT3L co-expressed in E. coli; lysis in 50 mM Tris-HCl pH 8.0, 1 M NaCl, 10% glycerol, 18 mM imidazole; held on Ni-NTA by the tag of DNMT3C

## DNMT3C rahu mutant (E693G), MTase domain (from UniProt P0DOY1 456-740) (domain or fragment)
[1]
  binding: no binding (tested: 0.4 mg/ml)

## human DNMT3L C-terminal domain (residues 178–386) (from UniProt Q9UJW3-1 178-386) (domain or fragment)
[2]
  binding: binds

## mouse DNMT3L C-terminal domain (residues 220–415) (from UniProt Q9CWR8 220-415) (domain or fragment)
[3]
  binding: binds
